Measured values reported in publication PMC12607495.
No constants are given. Whether binding was seen depends on the method and setting.

Sequences of proteins named here, by UniProt entry; tags and fusion partners are left off. Residues count along the entry.
UniProt P01375, residues 77-233: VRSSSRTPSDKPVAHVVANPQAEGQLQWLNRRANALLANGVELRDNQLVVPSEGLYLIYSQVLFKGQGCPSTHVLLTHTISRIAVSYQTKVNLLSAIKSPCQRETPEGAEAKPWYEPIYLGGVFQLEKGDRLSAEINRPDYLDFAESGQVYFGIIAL
UniProt P02769, residues 25-607: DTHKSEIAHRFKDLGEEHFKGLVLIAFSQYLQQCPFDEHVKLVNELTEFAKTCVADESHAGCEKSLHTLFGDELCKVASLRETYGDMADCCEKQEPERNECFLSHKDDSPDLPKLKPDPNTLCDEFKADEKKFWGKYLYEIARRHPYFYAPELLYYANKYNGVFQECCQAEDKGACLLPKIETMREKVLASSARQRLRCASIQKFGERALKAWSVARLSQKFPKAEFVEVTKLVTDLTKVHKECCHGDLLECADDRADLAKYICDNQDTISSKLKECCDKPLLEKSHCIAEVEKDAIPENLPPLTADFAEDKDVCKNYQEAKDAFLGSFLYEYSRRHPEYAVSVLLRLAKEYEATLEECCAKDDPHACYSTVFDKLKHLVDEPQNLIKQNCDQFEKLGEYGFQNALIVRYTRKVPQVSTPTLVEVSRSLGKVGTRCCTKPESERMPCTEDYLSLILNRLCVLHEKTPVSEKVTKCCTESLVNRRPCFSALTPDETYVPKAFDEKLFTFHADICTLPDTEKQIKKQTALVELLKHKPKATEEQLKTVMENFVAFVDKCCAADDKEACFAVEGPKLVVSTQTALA

Target: recombinant TNF-α (UniProt P01375)
Test: SPR; TNF-α immobilised on a COOH sensor chip (imSPR-Pro); analyte injected at 30 µL/min, 200 s association, 600 s dissociation; 10 mM HEPES-NaOH, 150 mM NaCl, 0.05% Tween-20, pH (7.4 or 8.0) not told for the TNF-α table; 1:1 Langmuir fit; both purified

In the case of “Serum albumin (from UniProt P02769 25-607)”, the binding is reported as “no binding”.
